Consider nine compounds from the supplement of paper PMC12889115.

Structures are written as SMILES. The list shows a part of the results. These are raw signals, not scaled to a control.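 First-pass screen: polymyxin B was added at a level that permeabilizes the Salmonella outer membrane while sparing the inner membrane. DMSO wells, with and without polymyxin B, defined maximum growth. Because plates differed from one another, each plate's data were ranked separately and the compounds with the lowest OD600 were carried forward as hits.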

The assay has as its system Salmonella enterica serovar Typhimurium SL1344. Nature of the assay: bacterial growth OD600 after 18 h with compound and polymyxin B; higher = more bacterial growth (less inhibition). Conditions: 50 µM, Mueller-Hinton broth.

On to `CCc1ccc(CN2Cc3ccccc3OC(C)C2)o1` (centres undefined), for which the “bacterial growth OD600” value (polymyxin B 0.75 µg/mL) was 0.689. On the same count and under the same terms, for `Cc1cc(C)cc(C(=O)N2CCC(C3(Cc4ccc(F)cc4)NC(=O)N(C4CCOC4)C3=O)CC2)c1` (centres undefined) the value was 0.671. Consider `O=C(c1cn(Cc2ccc(Cl)cc2)nn1)N1CCCC(OCc2cccnc2)C1` (centres undefined), for which the “bacterial growth OD600” value (polymyxin B 1 µg/mL) came out at 0.864. Still for that read-out and setting: in the case of `O=C(NCc1cccnc1)c1ccc2oc(-c3cccc(F)c3)nc2c1` it was 0.712.

On to `CCOc1ccc2nc(N3CCCC(C(=O)N4CCN(C(=O)c5cccs5)CC4)C3)nc(C)c2c1` (centres undefined), for which the “bacterial growth OD600” value (polymyxin B 0.75 µg/mL) amounted to 0.808. Same read-out and setting: for `COc1cc(CC2(CCC(=O)N3CCN(C(=O)c4cccs4)CC3)CCC(=O)N2)ccc1F` (centres undefined) the value was 0.995; for `COC(c1ccc2c(c1)CN(C(=O)C1Cc3ccccc3O1)CCO2)C1CCCCC1` (centres undefined), 0.002; for `CC1CN(Cc2ccsc2)Cc2cc(Cl)ccc2O1` (centres undefined), 0.007. Take `O=C1CC(NC2CCSCC2)CN1CCCc1ccccc1` (centres undefined): the “bacterial growth OD600” value (polymyxin B 1 µg/mL) was found to be 0.877.
